Source: ChEMBL document CHEMBL5046222, “Multifunctional Arylsulfone and Arylsulfonamide-Based Ligands with Prominent Mood-Modulating Activity and Benign Safety Profile, Targeting Neuropsychiatric Symptoms of Dementia” (J Med Chem, 2021)

Columns and labels:
[1] = species: Rattus norvegicus; settings: in vivo, ip, 10 min
[2] = species: Rattus norvegicus; experiment: animal or person; settings: Wistar, read-out: MED
[3] = species: Rattus norvegicus; experiment: animal or person; settings: Wistar, ip, read-out: MED

| Structure (SMILES) | MED [1] | minimal effective dose [2] | minimal effective dose [3] |
| --- | --- | --- | --- |
| Cc1cc2c(s1)Nc1ccccc1N=C2N1CCN(C)CC1 [OLANZAPINE] | 1 mg/kg | 3 mg/kg | 3 mg/kg |
| Cc1nc2n(c(=O)c1CCN1CCC(c3noc4cc(F)ccc34)CC1)CCCC2 [RISPERIDONE] | 1 mg/kg | 3 mg/kg | 0.3 mg/kg |
